In all, about 320,000 compounds went through this assay and about 2,100 (0.66%) were called active. This list was built around the results that the source calls inconclusive (neither active nor inactive); the mix of calls is not that of the screen. Calls come from the whole dose curve; as a rule, active = well fitted inhibition curve with a large enough effect in the signal ratio, with a control signal flat (not every such curve was filed as active); inconclusive = small, poorly fitted or top-dose-only effect, or effect the other way, or a change in a side signal; inactive = flat fitted curve, though single readings scatter; the % refers to the signal ratio. A potency beside an inconclusive call is a rough fit, not a confirmed value.
Test: qHTS Assay for Lipid Storage Modulators in Drosophila S3 Cells
Conditions: BODIPY lipid droplet fluorescence, 18-24 h, cells fed with added oleic acid; lipid storage change, negative = inhibition: at 46.1 µM (top of the series) unless noted
How it was run: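 Drosophila S3 cells got compounds at several concentrations plus oleic acid (400 uM solution). Laser-scanning cytometry with 488 nm excitation read lipid droplets at 500-530 nm and cells at 575-640 nm. Percent activity was relative to 20 uM Triacsin C.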
% is set by controls: 0 for no effect and ±100 for the full control effect; potency is the fitted concentration of half-maximal effect.

Row | SMILES | Potency | lipid storage change, negative = inhibition | outcome
1 | CCOC(=O)c1ccc(Nc2nc(C(=O)OCC)nc3ccccc23)cc1 | inconclusive: 23.1 µM [falling, single point] | – | –
2 | Cc1ccc(/C=C2\CCn3c2nc2cc(C(=O)O)ccc2c3=O)c(C)c1 | – | inconclusive: -100% | –
3 | CCN(CC(=O)Nc1ccc2c(c1)OCCO2)S(=O)(=O)c1ccc(F)cc1 | – | inconclusive: 116% | –
4 | CN(C)CCCN1C(=O)C2CCc3[nH]c4ccccc4c3C2C1=O (centres undefined) | inconclusive: 29.1 µM [activator, single point] | – | –
5 | COc1ccccc1Nc1nc2ccc(C)cc2n2cnnc12 | – | inconclusive: -28% | –
6 | COC(=O)CNC(c1ccccc1)c1cc(C)ccc1NC(=O)c1cccc(Cl)c1 (centres undefined) | inconclusive: 5.8 µM [rising, partial curve] | – | –
7 | CCCn1c(O)c(/C=C2\C=NN=C2c2ccccc2)sc1=S | inconclusive: 20.6 µM [falling, partial curve] | – | –
8 | Cn1c(SCC#N)nc2ccccc2c1=O | – | inconclusive: 10.1% | –
9 | CCCCCCCC(=O)NNC(=O)c1c(O)c2ccccc2n(CCC)c1=O | – | inconclusive: 8.3% | –
10 | COc1ccc(CCN(C)C(=O)c2cc(-c3ccccc3)nc3ccccc23)cc1OC | – | – | inactive [at 46.1 µM]
11 | CCOC(=O)c1c(C)[nH]c(C(=O)CN2C(=O)NC3(CCCC3)C2=O)c1C | – | inactive: 3.01% | –
12 | Cc1cc(C)c2oc(C(=O)NCc3ccccc3)cc(=O)c2c1 | inconclusive: 0.0651 µM [falling, full curve, poor fit] | – | –
13 | C=CCNC(=O)CC1C(=O)NCCN1Cc1ccc(-c2ccccc2)cc1 (centres undefined) | inconclusive: 0.517 µM [cytotoxic, partial curve, poor fit] | – | –
14 | Cc1ccc(S(=O)(=O)N2CCOCC2)cc1C(=O)N(C)CCOc1ccc(Cl)cc1 | – | inconclusive: -8.19% | –
15 | COc1cccc(Nc2nnc(Cc3cccnc3)c3ccccc23)c1 | – | inconclusive: -19.4% | –
16 | CC1Cc2ccccc2N1CC(=O)NCc1ccccc1Cl (centres undefined) | – | inconclusive: 26.4% | –
17 | COC(=O)C(C)NC(=O)c1ccc(C(C)(C)C)cc1 (centres undefined) | – | inconclusive: 109% | –
18 | O=C(Nc1ccccc1)c1ccncc1 | – | inconclusive: -1.84% | –
19 | O=c1[nH]c2ccccc2nc1Cc1ccc(Cl)cc1 | – | – | inactive [at 46.1 µM]
20 | Clc1ccc(C2=C3CCCCn4c(-c5ccccc5)c[n+](c43)C2)cc1 | inconclusive: 18.4 µM [falling, single point] | – | –
21 | COc1cccc2c3c(c(C)nc12)CCN3c1ccccc1 | – | inconclusive: 9.45% | –
22 | Cc1cc(C(=O)CSc2ncccn2)c(C)n1-c1cccc(F)c1 | inconclusive: 18.4 µM [rising, partial curve] | – | –
23 | COc1ccc(NC(=O)N2CCCC(C(=O)NCCc3ccccc3)C2)cc1 (centres undefined) | inconclusive: 29.1 µM [activator, single point] | – | –
24 | O=C1CC(C(=O)NC2CCCCC2)C(c2ccccc2)O1 (centres undefined) | inconclusive: 32.6 µM [falling, single point] | – | –
25 | Nc1nc(-c2ccccc2)c(-c2ccccc2)n1N | – | – | inactive [at 46.1 µM]

Row | SMILES | Potency | lipid storage change, negative = inhibition | outcome
26 | CCOC(=O)C1=C(N)N2C(=O)C(C)SC2=C(C(=O)OC)C1c1ccccc1OC (centres undefined) | – | inactive: -49.1% | –
27 | COc1ccc(CCn2c(-c3ccc(OC)cc3)nc3c(c(=O)c4ccccc4n3C)c2=O)cc1 | – | inconclusive: 31.7% | –
28 | CCOc1ccc(CN2CCNC(=O)C2CC(=O)NCc2cc(C)n(C)n2)cc1 (centres undefined) | – | inconclusive: 28.1% | –
29 | COc1ccccc1-n1c(CNC(=O)c2ccc(S(=O)(=O)N3CCOCC3)cc2)n[nH]c1=S | inconclusive: 2.91 µM [rising, single point] | – | –
30 | CN(C)C(=O)NCc1ccc(S(N)(=O)=O)cc1 | inconclusive: 3.66 µM [cytotoxic, full curve] | – | –
31 | COc1ccc2cc(CN(C(=O)Nc3ccccc3)C3CCCC3)c(=O)[nH]c2c1 | inconclusive: 6.51 µM [activator, partial curve] | – | –
32 | C/C(=N\N1CCN(Cc2ccc(Cl)cc2)CC1)c1ccc(F)cc1 | inconclusive: 14.6 µM [falling, single point] | – | –
33 | CC(NC(=O)C(=O)NCCC1=CCCCC1)c1ccccc1 (centres undefined) | – | inconclusive: 15.7% | –
34 | CC1=C(C(=O)OCc2ccccc2)C(c2ccc(Cl)cc2)NC(=O)N1CCCC(=O)O (centres undefined) | – | inconclusive: -35.9% | –
35 | Cc1cc(N(C)C)ccc1N=Nc1ccc2ncccc2c1 | inconclusive: 13 µM [cytotoxic, partial curve] | – | –
36 | COc1ccc(C)cc1NC(=O)CN1C(=O)COc2ccc(S(=O)(=O)N3CCCCCC3)cc21 | – | inconclusive: 244% | –
37 | Cc1ccc(C(=O)Nc2ccc3c(c2)OCO3)cc1S(=O)(=O)N1CCCCC1 | inconclusive: 0.92 µM [activator, partial curve] | – | –
38 | CCC(=O)c1ccc(OC(=O)/C=C/c2cc(OC)c(OC)c(OC)c2)cc1 | – | inconclusive: -57.2% | –
39 | CN(CC(=O)Nc1cccc(F)c1)C(=O)c1ccc2c(=O)n3c(nc2c1)CCC3 | – | inconclusive: 2.48% | –
40 | O=C(CCn1cnc(-c2ccccc2)c1-c1ccccc1)N/N=C/c1ccccc1O | inconclusive: 29.1 µM [falling, single point] | – | –
41 | O=C(NCC1CCCO1)c1ccc(COc2ccccc2)cc1 (centres undefined) | – | inconclusive: -20.9% | –
42 | O=C(c1ccc(F)cc1)N1CCN2C(=O)c3ccccc3C12c1ccccc1 (centres undefined) | – | inconclusive: 6.22% | –
43 | Cc1cc(=O)oc2cc(NC(=O)CN3C(=O)NC(C)(c4ccccc4)C3=O)ccc12 (centres undefined) | – | inconclusive: 29.5% | –
44 | COc1ccc(Cl)cc1NC(=O)Nc1ccc(C(=O)N2CCCC2)cc1 | – | inconclusive: -79.4% | –
45 | O=S(=O)(c1ccc(Cl)c(Cl)c1)c1snnc1-c1ccccc1 | – | inconclusive: 30.6% | –
46 | CSc1ccc(CN(C)Cc2cc(=O)oc3c(C)c(C)ccc23)cc1 | – | inconclusive: -52.7% | –
47 | O=C(NC1CCCC1)c1cc(Cl)ccc1[N+](=O)[O-] | inconclusive: 4.61 µM [activator, full curve, poor fit] | – | –
48 | COC(=O)CCN1CCN(S(=O)(=O)c2ccc3c(c2)OCCO3)CC1 | – | inconclusive: 44.4% | –
49 | CN(C/C=C/c1ccccc1)C1CCCCC1 | – | inconclusive: -23.1% | –

Laid out differently: three of the compounds above
Row	SMILES	Potency	lipid storage change, negative = inhibition	outcome
46	CSc1ccc(CN(C)Cc2cc(=O)oc3c(C)c(C)ccc23)cc1	–	inconclusive: -52.7%	–
47	O=C(NC1CCCC1)c1cc(Cl)ccc1[N+](=O)[O-]	inconclusive: 4.61 µM [activator, full curve, poor fit]	–	–
48	COC(=O)CCN1CCN(S(=O)(=O)c2ccc3c(c2)OCCO3)CC1	–	inconclusive: 44.4%	–
